# The list shows a part of the results. Shown are side measurements of this screen, not its main read-out; they come without a call. Most of these compounds were active or inconclusive in the main read-out, so they are no random draw. Potencies come from curve fits of mixed quality, noted in brackets.
# Assay: qHTS Assay for Modulators of Lamin A Splicing
# Conditions: HeLa LMNA splicing GFP/RFP minigene ratio, 48 h
# Procedure, shortened: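 Read-out is the ratio of GFP to DsRed2 object intensity, acquired by 488 nm laser-scanning cytometry on HeLa lamin A-EGFP minigene reporter cells. Compound incubation 48 hrs at 37 °C in Opti-MEM with 2% FBS; DMSO 0.5% final.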
# [1] = measured here: RFP viability control channel
# [2] = measured here: GFP splicing reporter channel
SMILES,AC50 [1],AC50 [2]
CCOC(=O)COc1cccc2c(=O)n(CC(=O)NCCc3ccccc3)ccc12,"0.631 µM [falling, single point]",
CC(C)n1cc(/C=C(\C#N)S(=O)(=O)c2ccccc2)c2ccccc21,"7.08 µM [rising, partial curve]","5.01 µM [rising, full curve]"
COc1ccc(N(C(=O)c2ccccc2OC(C)=O)C(C)C2CC2)cc1 (configuration not stated),,"15.8 µM [rising, single point]"
COc1ccc2nc(Sc3c([N+](=O)[O-])nc(C)n3Cc3ccccc3)[nH]c2c1,"35.5 µM [falling, single point]","22.4 µM [falling, single point]"
Cc1cccc(C(=O)NCC(=O)OCc2cc(=O)n3nc(C)sc3n2)c1,"0.891 µM [falling, full curve, poor fit]","3.55 µM [falling, partial curve]"
O=C(Nc1ccc2nn(-c3ccccc3)nc2c1)c1ccc2c(c1)OCCO2,"15.8 µM [rising, partial curve]","8.91 µM [rising, partial curve]"
Cc1cc(OCc2cn3cccnc3n2)ccc1Cl,,"5.62 µM [falling, single point]"
CSc1ccccc1-c1nnc(-c2ccccc2)o1,"20 µM [rising, single point]",
CC1(c2ccc([N+](=O)[O-])cc2)CC(C)(C)N(C(=O)c2ccccc2)c2ccccc21 (configuration not stated),"3.98 µM [rising, partial curve]","3.55 µM [rising, single point]"
COc1ccc2ccc3c(c2c1)N=C[C@]1(O3)N(C)c2ccccc2C1(C)C,"0.0355 µM [falling, single point]",
Clc1ccc2[nH]c(-c3ccccc3)cc2c1,"31.6 µM [rising, single point]",
CN(C)c1ncnc2ccc(-c3ccoc3)cc12,"12.6 µM [falling, partial curve]","14.1 µM [falling, partial curve]"
Cc1ccc(-c2csc(NC(=O)C3=NN(c4ccccc4)C(=O)CC3)n2)cc1,"14.1 µM [rising, single point]","5.62 µM [rising, single point]"
COc1ccc(/C=N/NC(=O)C2C(C=C(Cl)Cl)C2(C)C)c(OC)c1 (configuration not stated),"0.0794 µM [rising, full curve, poor fit]","0.0631 µM [rising, full curve, poor fit]"
Cc1ccc(C(=O)c2ccc(C)cc2)cc1,"35.5 µM [falling, single point]",
CCOc1cccc2cc(-c3nc(-c4ccc(Cl)cc4)c(C)s3)c(=O)oc12,"0.00708 µM [falling, full curve, poor fit]",
O=C(Nc1ccccc1)Nc1nnc(CSCc2ccccc2Cl)s1,"15.8 µM [rising, single point]",
O=C(COc1ncnc2c1cnn2-c1ccccc1)Nc1ccc(S(=O)(=O)N2CCCCC2)cc1,"35.5 µM [rising, single point]",
COc1ccc2c(c1)-c1nc(NC(=O)c3cccs3)sc1CC2,"22.4 µM [falling, single point]",
COc1ccc(-c2ccc(NS(=O)(=O)c3ccccc3Cl)cc2)nn1,"31.6 µM [rising, single point]",
O=C(CSc1n[nH]c(-c2ccc(S(=O)(=O)N3CCCCC3)cc2)n1)Nc1nccs1,"12.6 µM [rising, single point]",
Fc1ccccc1SCc1nnc(-c2ccccc2Br)o1,"35.5 µM [rising, single point]",
O=C1c2ccccc2C(=O)N1CCCCCc1nc(-c2ccccc2)no1,"35.5 µM [rising, single point]",
CCOC(=O)C(NC(=O)c1ccccc1OCC)(Nc1ncccn1)C(F)(F)F (configuration not stated),"4.47 µM [rising, partial curve]","3.55 µM [rising, partial curve]"
O=C(Nc1ccc2oc(-c3ccccc3)nc2c1)c1ccncc1,"12.6 µM [rising, partial curve]","17.8 µM [rising, partial curve]"
O=C(Nc1cccc(-c2nc3cc(Cl)ccc3o2)c1)c1ccc(F)cc1,"35.5 µM [falling, single point]","35.5 µM [falling, single point]"
COc1cc(OC)nc(S(C)(=O)=O)n1,"0.00398 µM [falling, full curve, poor fit]",
NC(=S)N/N=C/c1ccc(-c2cc(Cl)cc(Cl)c2)o1,"22.4 µM [rising, single point]","15.8 µM [rising, partial curve, poor fit]"

# Of the compounds above, these have fluorine:
SMILES,AC50 [1],AC50 [2]
Fc1ccccc1SCc1nnc(-c2ccccc2Br)o1,"35.5 µM [rising, single point]",
CCOC(=O)C(NC(=O)c1ccccc1OCC)(Nc1ncccn1)C(F)(F)F (configuration not stated),"4.47 µM [rising, partial curve]","3.55 µM [rising, partial curve]"
O=C(Nc1cccc(-c2nc3cc(Cl)ccc3o2)c1)c1ccc(F)cc1,"35.5 µM [falling, single point]","35.5 µM [falling, single point]"

# Continuation:

SMILES,AC50 [1],AC50 [2]
Cc1ccc2nc(N(CCN(C)C)C(=O)/C=C/c3cccs3)sc2c1,,"5.01 µM [rising, single point]"
Cc1ccc2nc(-c3ccccn3)cc(C(=O)Nc3ccc(S(=O)(=O)N4CCOCC4)cc3)c2c1,,"0.1 µM [falling, full curve, poor fit]"
O=C(Nc1cccc(Cl)c1)Nc1nnc(CSCCOc2ccc(Cl)cc2)s1,"3.16 µM [rising, full curve]",
CN(C)CCCN(C(=O)c1sc2ccccc2c1Cl)c1nc2ccc(F)cc2s1,"12.6 µM [rising, partial curve]","11.2 µM [rising, partial curve]"
O=C(CCn1cnc2onc(-c3ccc(F)cc3)c2c1=O)N1CCN(c2ccccc2)CC1,"35.5 µM [falling, partial curve, poor fit]",
O=C(c1cnc(N2CCCCC2)c2ccccc12)N1CCN(c2ccc(Cl)cc2)CC1,"6.31 µM [falling, partial curve, poor fit]","0.000562 µM [falling, full curve, poor fit]"
Cc1ccc(C2CC(C(F)(F)F)n3nc(C(=O)NCc4c(C)nn(C)c4C)c(Cl)c3N2)cc1 (configuration not stated),"11.2 µM [rising, partial curve]","11.2 µM [rising, partial curve]"
Cc1ccc(C)c(S(=O)(=O)NCCc2csc(-c3ccc(Cl)cc3)n2)c1,"35.5 µM [falling, single point]","35.5 µM [falling, single point]"
O=C(COC(=O)c1ccc(Oc2ccccc2)cc1)Nc1nnc(-c2ccccc2)o1,"35.5 µM [rising, single point]",
Cc1cc(C)c2sc(N(Cc3cccnc3)C(=O)CCOc3ccccc3)nc2c1,,"6.31 µM [falling, partial curve, poor fit]"
CC1=CC(C)(C)N(S(=O)(=O)c2ccc(C)cc2)c2ccccc21,"5.62 µM [rising, single point]","2.82 µM [falling, partial curve]"
COc1ccccc1-c1nnc2sc(COc3ccc(Cl)cc3Cl)nn12,"12.6 µM [falling, partial curve, poor fit]","10 µM [falling, partial curve, poor fit]"
O=c1cc(-c2ccccc2)[nH]n1-c1ccc([N+](=O)[O-])cc1,"35.5 µM [falling, single point]","22.4 µM [falling, single point]"
COc1ccc(CSc2nc(C)cc(=O)[nH]2)cc1Br,"11.2 µM [rising, partial curve]",
C=CCC1NCCc2c(Br)cccc21 (configuration not stated),,"7.08 µM [falling, partial curve, poor fit]"
O=C(O)c1ccc(OC2CSC2)cc1,"6.31 µM [falling, single point]",
O=[N+]([O-])c1ccc(C[n+]2cccc3c4ccccc4ccc32)cc1,"0.00447 µM [falling, full curve, poor fit]",
Cn1c(O)c(C2=c3ccccc3=NC2=O)[nH]c1=S,"4.47 µM [rising, partial curve]","2.82 µM [rising, full curve, poor fit]"
Cc1ccc(C(c2c(C)nn(-c3ccccc3)c2N)c2c(C)nn(-c3ccccc3)c2N)cc1,"0.141 µM [rising, full curve, poor fit]","3.55 µM [rising, full curve]"
COc1ccc(NC(=S)Nc2cccc(C(C)=O)c2)cc1OC,"11.2 µM [rising, single point]",
COc1cc(NC(=O)CSc2nc3[nH]ncc3c(=O)n2-c2ccccc2C)cc(OC)c1OC,,"15.8 µM [rising, single point]"
Nc1ccc(-c2nc3nc(N)nc(N)c3nc2-c2ccc(N)cc2)cc1,,"11.2 µM [rising, partial curve, poor fit]"
CC1(C)CC(=O)C2=C(C1)NC1=C(C(=O)c3ccccc31)C2c1ccc(O)cc1 (configuration not stated),"35.5 µM [rising, single point]",
O=C(Nc1ccc(S(=O)(=O)N2CCc3ccccc3C2)cc1)C1CCCO1 (configuration not stated),"17.8 µM [rising, partial curve]","10 µM [rising, single point]"
c1cncc(-c2nccc(NCc3cccs3)n2)c1,,"0.282 µM [falling, full curve, poor fit]"
C=C(C)c1cccc(C(C)(C)NC(=O)Nc2ccc(OC)cc2)c1,,"0.0112 µM [falling, full curve, poor fit]"
CCCCc1ccc(NS(=O)(=O)c2ccc(N3CCCCS3(=O)=O)cc2)cc1,"22.4 µM [rising, partial curve, poor fit]",

# — PubChem BioAssay AID1487 (National Center for Advancing Translational Sciences (NCATS), 2009)
